These are yes or no findings as the source states them, for the method shown. For some assays here: Binding seen in cells or lysates may run through a third protein. Some binding calls cover weakened binding; strength is not graded here. Where a sequence is shown, tags or fusion partners need not be part of it.

From PMC8133684, “The URL1–ROC5–TPL2 transcriptional repressor complex represses the ACL1 gene to modulate leaf rolling in rice” come the findings set out here.

Experiment [1] has as its target T1, ROC5 fused to the N- or C-terminal part of firefly luciferase (rice (Oryza sativa L.)) (UniProt Q6EPF0).
T1 sequence: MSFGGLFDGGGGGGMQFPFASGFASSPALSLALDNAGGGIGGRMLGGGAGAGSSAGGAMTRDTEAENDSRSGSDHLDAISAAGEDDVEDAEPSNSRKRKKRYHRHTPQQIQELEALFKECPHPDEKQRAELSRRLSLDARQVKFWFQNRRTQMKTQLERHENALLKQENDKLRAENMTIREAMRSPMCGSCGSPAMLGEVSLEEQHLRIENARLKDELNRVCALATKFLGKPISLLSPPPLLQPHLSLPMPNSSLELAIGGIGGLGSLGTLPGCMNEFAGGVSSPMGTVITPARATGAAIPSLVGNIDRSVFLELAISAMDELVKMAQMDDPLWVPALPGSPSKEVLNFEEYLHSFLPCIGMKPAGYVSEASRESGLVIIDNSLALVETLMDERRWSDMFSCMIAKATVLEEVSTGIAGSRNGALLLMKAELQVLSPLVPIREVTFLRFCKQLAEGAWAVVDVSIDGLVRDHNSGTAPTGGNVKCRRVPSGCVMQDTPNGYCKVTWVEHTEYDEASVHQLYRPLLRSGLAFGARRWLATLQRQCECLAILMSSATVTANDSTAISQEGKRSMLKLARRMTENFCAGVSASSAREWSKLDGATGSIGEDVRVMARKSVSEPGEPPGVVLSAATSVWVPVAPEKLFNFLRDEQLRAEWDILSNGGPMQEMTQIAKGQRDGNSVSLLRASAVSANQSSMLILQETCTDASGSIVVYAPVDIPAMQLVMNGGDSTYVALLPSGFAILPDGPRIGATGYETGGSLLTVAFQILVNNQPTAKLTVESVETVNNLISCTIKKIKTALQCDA
As to the kind of experiment: split reporter; firefly luciferase complementation imaging (LCI); NLUC and CLUC fusions co-expressed by Agrobacterium infiltration in the same N. benthamiana leaf; luciferin sprayed, LUC signal imaged and quantified.

The target of experiment [2] is T2, URL1 (ROC8) fused to the N- or C-terminal part of firefly luciferase (rice (Oryza sativa L.)) (UniProt Q69T58).
T2 sequence: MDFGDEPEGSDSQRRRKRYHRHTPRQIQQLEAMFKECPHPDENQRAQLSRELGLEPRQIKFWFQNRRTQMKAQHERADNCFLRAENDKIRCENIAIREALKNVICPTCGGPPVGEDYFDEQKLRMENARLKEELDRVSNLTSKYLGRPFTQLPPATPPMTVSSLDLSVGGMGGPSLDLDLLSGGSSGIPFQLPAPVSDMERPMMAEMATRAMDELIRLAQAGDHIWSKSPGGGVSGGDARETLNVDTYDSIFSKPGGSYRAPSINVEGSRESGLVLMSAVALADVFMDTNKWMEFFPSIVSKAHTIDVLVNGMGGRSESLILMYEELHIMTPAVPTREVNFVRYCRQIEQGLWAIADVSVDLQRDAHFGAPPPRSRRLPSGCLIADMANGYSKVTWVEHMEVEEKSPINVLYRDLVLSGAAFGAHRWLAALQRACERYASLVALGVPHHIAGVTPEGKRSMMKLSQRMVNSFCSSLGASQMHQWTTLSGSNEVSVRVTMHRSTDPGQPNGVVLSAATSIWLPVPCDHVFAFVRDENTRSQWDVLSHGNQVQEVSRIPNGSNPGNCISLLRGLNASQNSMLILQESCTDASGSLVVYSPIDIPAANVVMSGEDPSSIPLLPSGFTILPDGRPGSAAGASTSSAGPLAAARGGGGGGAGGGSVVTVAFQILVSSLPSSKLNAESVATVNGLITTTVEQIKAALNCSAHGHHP
The description is as above.

Experiment [3] deals with T3, URL1 (UPWARD ROLLED LEAF1), HD-ZIP IV family member RICE OUTERMOST CELL-SPECIFIC 8 (ROC8), yeast two-hybrid fusion (rice (Oryza sativa L.)) (UniProt Q69T58).
T3 sequence: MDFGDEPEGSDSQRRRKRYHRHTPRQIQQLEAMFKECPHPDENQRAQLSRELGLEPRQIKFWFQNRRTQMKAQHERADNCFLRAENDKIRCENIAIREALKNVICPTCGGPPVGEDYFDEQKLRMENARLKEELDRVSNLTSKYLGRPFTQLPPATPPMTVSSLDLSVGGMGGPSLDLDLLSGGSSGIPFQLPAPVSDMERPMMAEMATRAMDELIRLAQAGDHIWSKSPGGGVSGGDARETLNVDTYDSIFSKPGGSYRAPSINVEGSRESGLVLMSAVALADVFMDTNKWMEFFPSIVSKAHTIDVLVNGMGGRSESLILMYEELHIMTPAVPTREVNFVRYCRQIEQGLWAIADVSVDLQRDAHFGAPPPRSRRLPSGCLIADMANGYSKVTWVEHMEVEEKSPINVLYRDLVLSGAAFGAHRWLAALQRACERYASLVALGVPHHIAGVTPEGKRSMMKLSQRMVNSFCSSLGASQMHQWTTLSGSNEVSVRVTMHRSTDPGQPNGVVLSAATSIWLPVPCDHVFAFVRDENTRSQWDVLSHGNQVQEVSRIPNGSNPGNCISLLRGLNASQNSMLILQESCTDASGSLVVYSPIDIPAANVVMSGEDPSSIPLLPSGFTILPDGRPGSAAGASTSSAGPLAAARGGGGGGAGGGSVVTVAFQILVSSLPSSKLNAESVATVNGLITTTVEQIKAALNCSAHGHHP
As to the kind of experiment: two-hybrid; full-length URL1 and ROC5 in pGBKT7 or pGADT7; yeast strain AH109; growth on SD-Leu-Trp-His with 15 mM 3-AT and liquid beta-galactosidase activity assay.

B1: ROC5 fused to the N- or C-terminal part of firefly luciferase (protein, UniProt Q6EPF0 1-804)
chain: MSFGGLFDGGGGGGMQFPFASGFASSPALSLALDNAGGGIGGRMLGGGAGAGSSAGGAMTRDTEAENDSRSGSDHLDAISAAGEDDVEDAEPSNSRKRKKRYHRHTPQQIQELEALFKECPHPDEKQRAELSRRLSLDARQVKFWFQNRRTQMKTQLERHENALLKQENDKLRAENMTIREAMRSPMCGSCGSPAMLGEVSLEEQHLRIENARLKDELNRVCALATKFLGKPISLLSPPPLLQPHLSLPMPNSSLELAIGGIGGLGSLGTLPGCMNEFAGGVSSPMGTVITPARATGAAIPSLVGNIDRSVFLELAISAMDELVKMAQMDDPLWVPALPGSPSKEVLNFEEYLHSFLPCIGMKPAGYVSEASRESGLVIIDNSLALVETLMDERRWSDMFSCMIAKATVLEEVSTGIAGSRNGALLLMKAELQVLSPLVPIREVTFLRFCKQLAEGAWAVVDVSIDGLVRDHNSGTAPTGGNVKCRRVPSGCVMQDTPNGYCKVTWVEHTEYDEASVHQLYRPLLRSGLAFGARRWLATLQRQCECLAILMSSATVTANDSTAISQEGKRSMLKLARRMTENFCAGVSASSAREWSKLDGATGSIGEDVRVMARKSVSEPGEPPGVVLSAATSVWVPVAPEKLFNFLRDEQLRAEWDILSNGGPMQEMTQIAKGQRDGNSVSLLRASAVSANQSSMLILQETCTDASGSIVVYAPVDIPAMQLVMNGGDSTYVALLPSGFAILPDGPRIGATGYETGGSLLTVAFQILVNNQPTAKLTVESVETVNNLISCTIKKIKTALQCDA
As for B1, the binding entry in experiment [1] and in experiment [2] was “binds” throughout.

B2: URL1 (ROC8) fused to the N- or C-terminal part of firefly luciferase (protein, UniProt Q69T58 1-710)
chain: MDFGDEPEGSDSQRRRKRYHRHTPRQIQQLEAMFKECPHPDENQRAQLSRELGLEPRQIKFWFQNRRTQMKAQHERADNCFLRAENDKIRCENIAIREALKNVICPTCGGPPVGEDYFDEQKLRMENARLKEELDRVSNLTSKYLGRPFTQLPPATPPMTVSSLDLSVGGMGGPSLDLDLLSGGSSGIPFQLPAPVSDMERPMMAEMATRAMDELIRLAQAGDHIWSKSPGGGVSGGDARETLNVDTYDSIFSKPGGSYRAPSINVEGSRESGLVLMSAVALADVFMDTNKWMEFFPSIVSKAHTIDVLVNGMGGRSESLILMYEELHIMTPAVPTREVNFVRYCRQIEQGLWAIADVSVDLQRDAHFGAPPPRSRRLPSGCLIADMANGYSKVTWVEHMEVEEKSPINVLYRDLVLSGAAFGAHRWLAALQRACERYASLVALGVPHHIAGVTPEGKRSMMKLSQRMVNSFCSSLGASQMHQWTTLSGSNEVSVRVTMHRSTDPGQPNGVVLSAATSIWLPVPCDHVFAFVRDENTRSQWDVLSHGNQVQEVSRIPNGSNPGNCISLLRGLNASQNSMLILQESCTDASGSLVVYSPIDIPAANVVMSGEDPSSIPLLPSGFTILPDGRPGSAAGASTSSAGPLAAARGGGGGGAGGGSVVTVAFQILVSSLPSSKLNAESVATVNGLITTTVEQIKAALNCSAHGHHP
Regarding B2, the binding result in experiment [1] and in experiment [2] was “binds” throughout.

B3: URL1 (UPWARD ROLLED LEAF1), HD-ZIP IV family member RICE OUTERMOST CELL-SPECIFIC 8 (ROC8), yeast two-hybrid fusion (protein, UniProt Q69T58 1-710)
chain: MDFGDEPEGSDSQRRRKRYHRHTPRQIQQLEAMFKECPHPDENQRAQLSRELGLEPRQIKFWFQNRRTQMKAQHERADNCFLRAENDKIRCENIAIREALKNVICPTCGGPPVGEDYFDEQKLRMENARLKEELDRVSNLTSKYLGRPFTQLPPATPPMTVSSLDLSVGGMGGPSLDLDLLSGGSSGIPFQLPAPVSDMERPMMAEMATRAMDELIRLAQAGDHIWSKSPGGGVSGGDARETLNVDTYDSIFSKPGGSYRAPSINVEGSRESGLVLMSAVALADVFMDTNKWMEFFPSIVSKAHTIDVLVNGMGGRSESLILMYEELHIMTPAVPTREVNFVRYCRQIEQGLWAIADVSVDLQRDAHFGAPPPRSRRLPSGCLIADMANGYSKVTWVEHMEVEEKSPINVLYRDLVLSGAAFGAHRWLAALQRACERYASLVALGVPHHIAGVTPEGKRSMMKLSQRMVNSFCSSLGASQMHQWTTLSGSNEVSVRVTMHRSTDPGQPNGVVLSAATSIWLPVPCDHVFAFVRDENTRSQWDVLSHGNQVQEVSRIPNGSNPGNCISLLRGLNASQNSMLILQESCTDASGSLVVYSPIDIPAANVVMSGEDPSSIPLLPSGFTILPDGRPGSAAGASTSSAGPLAAARGGGGGGAGGGSVVTVAFQILVSSLPSSKLNAESVATVNGLITTTVEQIKAALNCSAHGHHP
Turning to B3, the binding entry in experiment [3] is on record as “binds”.
